This passage reports NP40-soluble protein abundance results from the supplement of paper PMC6411743.

Chains of the proteins cited; added tags and fusions are not shown. Lines headed by an entry give the natural chain unless they say otherwise; changes in a name come on top.
UniProt Q86WV1: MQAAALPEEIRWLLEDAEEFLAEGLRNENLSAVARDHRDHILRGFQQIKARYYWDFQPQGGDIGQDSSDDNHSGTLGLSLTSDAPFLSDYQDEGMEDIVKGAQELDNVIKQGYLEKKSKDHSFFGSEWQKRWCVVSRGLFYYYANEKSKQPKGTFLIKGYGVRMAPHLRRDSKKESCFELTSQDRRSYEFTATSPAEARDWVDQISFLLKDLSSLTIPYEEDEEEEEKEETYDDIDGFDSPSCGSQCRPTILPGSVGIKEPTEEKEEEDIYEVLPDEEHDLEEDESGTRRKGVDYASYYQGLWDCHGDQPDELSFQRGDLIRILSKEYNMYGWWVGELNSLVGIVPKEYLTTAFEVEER
UniProt Q8TB72: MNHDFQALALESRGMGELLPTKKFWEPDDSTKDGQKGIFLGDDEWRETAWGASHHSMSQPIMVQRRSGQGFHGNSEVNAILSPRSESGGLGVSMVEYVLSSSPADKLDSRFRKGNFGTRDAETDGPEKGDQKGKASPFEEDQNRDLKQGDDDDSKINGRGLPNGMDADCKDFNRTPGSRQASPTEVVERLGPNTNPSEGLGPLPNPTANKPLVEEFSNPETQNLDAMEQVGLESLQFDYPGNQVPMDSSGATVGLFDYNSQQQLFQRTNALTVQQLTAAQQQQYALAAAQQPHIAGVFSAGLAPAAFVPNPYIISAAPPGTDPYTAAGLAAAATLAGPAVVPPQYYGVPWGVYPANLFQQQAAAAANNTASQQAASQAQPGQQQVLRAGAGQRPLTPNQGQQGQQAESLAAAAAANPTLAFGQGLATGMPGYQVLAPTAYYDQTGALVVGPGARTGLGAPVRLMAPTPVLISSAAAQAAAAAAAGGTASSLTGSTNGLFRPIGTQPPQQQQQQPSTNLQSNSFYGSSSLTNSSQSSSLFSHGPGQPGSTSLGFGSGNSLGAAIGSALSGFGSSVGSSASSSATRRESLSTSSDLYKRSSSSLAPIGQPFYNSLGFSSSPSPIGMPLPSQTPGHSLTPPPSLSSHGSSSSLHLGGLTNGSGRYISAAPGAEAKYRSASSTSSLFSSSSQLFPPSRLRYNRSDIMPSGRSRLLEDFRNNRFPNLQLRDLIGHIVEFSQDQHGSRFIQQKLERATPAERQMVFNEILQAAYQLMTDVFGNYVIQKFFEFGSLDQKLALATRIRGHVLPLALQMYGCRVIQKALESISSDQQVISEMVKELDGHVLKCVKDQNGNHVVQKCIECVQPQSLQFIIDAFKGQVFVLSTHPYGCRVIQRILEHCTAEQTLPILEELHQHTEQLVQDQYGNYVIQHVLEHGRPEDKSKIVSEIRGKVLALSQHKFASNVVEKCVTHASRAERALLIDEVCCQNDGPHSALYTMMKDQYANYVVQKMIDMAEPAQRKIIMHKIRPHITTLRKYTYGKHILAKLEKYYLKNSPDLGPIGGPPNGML
UniProt Q8NEB9, whole entry: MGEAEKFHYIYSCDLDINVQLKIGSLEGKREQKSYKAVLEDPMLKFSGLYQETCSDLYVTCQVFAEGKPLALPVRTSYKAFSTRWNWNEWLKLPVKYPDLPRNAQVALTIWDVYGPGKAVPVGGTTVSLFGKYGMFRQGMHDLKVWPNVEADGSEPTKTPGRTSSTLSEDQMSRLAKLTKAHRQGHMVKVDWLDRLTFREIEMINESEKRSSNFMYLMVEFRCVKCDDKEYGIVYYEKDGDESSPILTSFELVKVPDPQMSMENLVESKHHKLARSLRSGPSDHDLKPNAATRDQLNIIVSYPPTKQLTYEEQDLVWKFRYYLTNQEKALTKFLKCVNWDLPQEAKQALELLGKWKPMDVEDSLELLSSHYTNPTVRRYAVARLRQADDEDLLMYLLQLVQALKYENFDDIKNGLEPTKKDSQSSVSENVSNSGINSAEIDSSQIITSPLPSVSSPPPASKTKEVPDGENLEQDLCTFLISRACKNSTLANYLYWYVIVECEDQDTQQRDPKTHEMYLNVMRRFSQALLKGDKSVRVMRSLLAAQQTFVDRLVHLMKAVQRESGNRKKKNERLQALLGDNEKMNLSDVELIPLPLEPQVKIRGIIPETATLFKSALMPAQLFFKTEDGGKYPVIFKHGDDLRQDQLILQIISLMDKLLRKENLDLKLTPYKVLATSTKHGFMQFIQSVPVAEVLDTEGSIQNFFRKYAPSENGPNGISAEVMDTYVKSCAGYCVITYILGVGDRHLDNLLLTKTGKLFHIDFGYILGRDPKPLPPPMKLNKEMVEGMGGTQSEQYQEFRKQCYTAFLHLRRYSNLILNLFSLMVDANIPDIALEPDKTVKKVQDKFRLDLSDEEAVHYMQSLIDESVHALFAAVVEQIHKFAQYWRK
UniProt Q8TAP6: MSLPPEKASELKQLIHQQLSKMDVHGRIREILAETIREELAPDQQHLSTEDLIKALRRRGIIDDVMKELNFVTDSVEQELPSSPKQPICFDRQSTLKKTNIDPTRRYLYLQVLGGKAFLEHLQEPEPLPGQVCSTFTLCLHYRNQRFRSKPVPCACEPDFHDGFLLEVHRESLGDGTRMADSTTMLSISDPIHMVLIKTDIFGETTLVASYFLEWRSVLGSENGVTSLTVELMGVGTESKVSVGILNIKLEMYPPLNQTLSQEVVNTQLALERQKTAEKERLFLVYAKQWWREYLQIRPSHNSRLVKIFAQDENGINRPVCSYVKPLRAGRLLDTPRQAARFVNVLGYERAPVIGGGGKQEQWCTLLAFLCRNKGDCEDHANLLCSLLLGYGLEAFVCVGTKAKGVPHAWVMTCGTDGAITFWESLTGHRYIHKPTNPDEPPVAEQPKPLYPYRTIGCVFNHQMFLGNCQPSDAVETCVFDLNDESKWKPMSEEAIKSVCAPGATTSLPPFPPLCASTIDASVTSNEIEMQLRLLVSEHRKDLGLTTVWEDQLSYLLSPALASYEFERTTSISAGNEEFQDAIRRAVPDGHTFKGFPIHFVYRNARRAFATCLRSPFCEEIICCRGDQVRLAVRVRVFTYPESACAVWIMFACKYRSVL

± gives the standard deviation of the averaged measurements. The list shows a part of the results.

Compound in this experiment: Nc1nc2c(ncn2[C@@H]2O[C@H](COP(=O)(O)OP(=O)(O)OP(=O)(O)O)[C@@H](O)[C@H]2O)c(=O)[nH]1 [guanosine triphosphate]
Description: NP40-soluble protein abundance relative to vehicle (solubility fold change) (ratio); higher = more soluble protein in presence of GTP. Here is the method:
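Solubility proteome profiling in Jurkat crude lysate. Lysate was treated with Mg-GTP (0.1-10 mM) for 10 min at room temperature and 3 min at 37 °C, then solubilised with 0.8% NP40 and benzonase, followed by ultracentrifugation. Proteins were quantified by TMT10 LC-MS/MS; the value is the NP40-soluble abundance relative to the NP40-processed vehicle, from 3 independent experiments.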

On to UniProt Q86WV1 and related entries, for which the NP40-soluble protein abundance by setting is: (concentration: 0.1mM) 0.925 ± 0.045; (concentration: 0.5mM) 1.03 ± 0.063; (concentration: 1mM) 0.975 ± 0.12; (concentration: 2mM) 0.978 ± 0.079; (concentration: 4mM) 0.902 ± 0.1; (concentration: 6mM) 0.979 ± 0.1. The NP40-soluble protein abundance (concentration: 8mM) amounted to 0.934 ± 0.15 and the NP40-soluble protein abundance (concentration: 10mM) was 0.97 ± 0.052.

As for DCP2 (UniProt Q8IU60), the NP40-soluble protein abundance by setting is: (concentration: 0.1mM) 0.983 ± 0.037; (concentration: 0.5mM) 1 ± 0.054; (concentration: 1mM) 0.961 ± 0.069; (concentration: 2mM) 0.973 ± 0.074; (concentration: 4mM) 0.946 ± 0.061; (concentration: 6mM) 0.952 ± 0.05. Further, the NP40-soluble protein abundance runs as follows: (concentration: 8mM) 0.962 ± 0.071; (concentration: 10mM) 0.979 ± 0.047.

In the case of UniProt Q8TB72 and related entries, the NP40-soluble protein abundance is, setting by setting: (concentration: 0.1mM) 1.03 ± 0.032; (concentration: 0.5mM) 0.99 ± 0.023; (concentration: 1mM) 0.999 ± 0.015; (concentration: 2mM) 0.959 ± 0.029; (concentration: 4mM) 0.987 ± 0.011; (concentration: 6mM) 0.944 ± 0.02. The NP40-soluble protein abundance by setting is: (concentration: 8mM) 0.965 ± 0.015; (concentration: 10mM) 0.942 ± 0.047.

Turning to UniProt Q8NEB9, the NP40-soluble protein abundance runs as follows: (concentration: 0.1mM) 0.995 ± 0.041; (concentration: 0.5mM) 1.01 ± 0.024; (concentration: 1mM) 0.999 ± 0.02; (concentration: 2mM) 1.01 ± 0.03; (concentration: 4mM) 1.01 ± 0.029; (concentration: 6mM) 0.992 ± 0.048. The NP40-soluble protein abundance by setting is: (concentration: 8mM) 0.969 ± 0.045; (concentration: 10mM) 0.941 ± 0.054.

Consider UniProt Q8TAP6 and related entries, for which the NP40-soluble protein abundance by setting is: (concentration: 0.1mM) 1.03 ± 0.063; (concentration: 0.5mM) 1.05 ± 0.075; (concentration: 1mM) 1 ± 0.04; (concentration: 2mM) 1.01 ± 0.097; (concentration: 4mM) 1.01 ± 0.072; (concentration: 6mM) 0.962 ± 0.052. Further, the NP40-soluble protein abundance by setting is: (concentration: 8mM) 0.977 ± 0.086; (concentration: 10mM) 0.972 ± 0.068.
